Source: patent US20050106179A1
These are yes or no findings as the source states them, for the method shown. Some results given as binding are weak or reduced against the parent protein; the word gives no strength. Tags and fused reporters may be left off the sequences shown.

By UniProt entry, the sequences of proteins in these tests, tags left out. Residues count along the entry.
UniProt O00206, residues 24-839: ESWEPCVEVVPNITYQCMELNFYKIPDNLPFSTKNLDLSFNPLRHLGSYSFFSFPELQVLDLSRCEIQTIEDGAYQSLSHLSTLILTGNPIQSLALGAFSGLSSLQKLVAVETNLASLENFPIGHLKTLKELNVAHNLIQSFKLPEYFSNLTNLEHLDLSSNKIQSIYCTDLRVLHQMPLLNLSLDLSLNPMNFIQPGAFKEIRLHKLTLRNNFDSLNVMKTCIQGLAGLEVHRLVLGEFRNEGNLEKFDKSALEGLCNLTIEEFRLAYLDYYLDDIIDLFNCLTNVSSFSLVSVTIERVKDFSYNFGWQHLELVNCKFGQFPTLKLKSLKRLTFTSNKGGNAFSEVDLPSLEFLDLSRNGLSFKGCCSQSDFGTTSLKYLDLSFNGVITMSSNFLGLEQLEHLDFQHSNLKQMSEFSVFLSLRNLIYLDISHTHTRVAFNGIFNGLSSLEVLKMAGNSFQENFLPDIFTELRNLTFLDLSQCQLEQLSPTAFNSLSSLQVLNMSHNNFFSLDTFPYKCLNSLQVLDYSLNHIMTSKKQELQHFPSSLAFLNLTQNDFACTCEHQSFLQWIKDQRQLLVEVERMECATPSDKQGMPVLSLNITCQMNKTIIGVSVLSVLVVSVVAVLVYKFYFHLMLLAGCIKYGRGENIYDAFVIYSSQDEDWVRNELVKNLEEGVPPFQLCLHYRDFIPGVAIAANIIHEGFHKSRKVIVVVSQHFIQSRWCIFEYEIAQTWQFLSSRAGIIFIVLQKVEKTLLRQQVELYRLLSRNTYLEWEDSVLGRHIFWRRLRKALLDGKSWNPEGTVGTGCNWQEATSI

How the values were obtained:
[1] = target: Toll-like receptor 4 (TLR4) stably expressed on HEK293 cells (HEK/TLR4) (UniProt O00206); assay: cell association of radiolabelled complex with HEK/TLR4 cells
[2] = target: Toll-like receptor 4 (TLR4) stably expressed on HEK293 cells (HEK/TLR4) (UniProt O00206); assay: cell association of radiolabelled complex (0.75 ng LOS/ml) with HEK/TLR4 cells, overnight at 37 C
[3] = target: Toll-like receptor 4 (TLR4) stably expressed on HEK293 cells (HEK/TLR4) (UniProt O00206); assay: cell association of radiolabelled complex with HEK/TLR4 against parental HEK cells, liquid scintillation counting
[4] = target: Toll-like receptor 4 (TLR4) stably expressed on HEK293 cells (HEK/TLR4) (UniProt O00206); assay: competition: excess free MD-2 against [^3H]-LOS-MD-2 (0.75 ng/ml) on HEK/TLR4 cells, cell-associated radioactivity

Binder	binding [1]	binding [2]	binding [3]	binding [4]
[^3H]-LOS-MD-2 complex (monomeric complex of wild-type N. meningitidis lipooligosaccharide with recombinant wt MD-2-His6, Mr~25,000) (protein) QKQYWVCNSSDASISYTYCDKMQYPISINVNPCIELKRSKGLLHIFYIPRRDLKQLYFNLYITVNTMNLPKRKEVICRGSDDDYSFCRALKGETVNTTISFSFKGIKFSKGKYKCVVEAISGSPEEMLFCLEFVILHQPNSNHHHHHH	binds	binds	binds	–
soluble polyhistidine-tagged recombinant wild-type MD-2 (MD-2-His6), in conditioned insect cell culture medium (protein, human) QKQYWVCNSSDASISYTYCDKMQYPISINVNPCIELKRSKGLLHIFYIPRRDLKQLYFNLYITVNTMNLPKRKEVICRGSDDDYSFCRALKGETVNTTISFSFKGIKFSKGKYKCVVEAISGSPEEMLFCLEFVILHQPNSNHHHHHH	–	–	–	binds
